Measured values from article PMC4480697.
Results are given in words; binding and its absence hold for the method and conditions named. In cells and extracts the contact can be indirect. Some results given as binding are weak or reduced against the parent protein; the word gives no strength. For some assays here: Tags and fused reporters may be left off the sequences shown. Values belong to the molecule of their own block, whether it stands above or below them.

Protein sequences, listed by entry. Tags and fused reporters are not part of them.
UniProt P98170: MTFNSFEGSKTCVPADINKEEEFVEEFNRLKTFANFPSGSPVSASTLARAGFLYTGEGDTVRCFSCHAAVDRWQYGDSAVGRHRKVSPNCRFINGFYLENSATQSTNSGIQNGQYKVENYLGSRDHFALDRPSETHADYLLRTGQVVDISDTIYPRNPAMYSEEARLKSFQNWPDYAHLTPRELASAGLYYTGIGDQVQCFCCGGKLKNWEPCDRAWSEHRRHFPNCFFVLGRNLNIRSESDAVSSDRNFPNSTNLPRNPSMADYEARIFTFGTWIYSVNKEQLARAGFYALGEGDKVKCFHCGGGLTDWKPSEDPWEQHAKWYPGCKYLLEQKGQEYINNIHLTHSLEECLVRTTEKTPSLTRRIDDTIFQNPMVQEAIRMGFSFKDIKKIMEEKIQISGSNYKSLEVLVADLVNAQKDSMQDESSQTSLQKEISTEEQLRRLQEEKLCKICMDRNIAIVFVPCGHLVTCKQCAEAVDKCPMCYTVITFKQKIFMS

Columns and labels:
[1] = target: T1, TRIP-Br3 (Transcriptional Regulator Interacting with the PHD-Bromo-domain 3), endogenous in MCF7 cells (human (endogenous in MCF7)) (UniProt Q9BXL8); assay: co-IP; endogenous proteins, MCF7 cells in complete medium harvested at 90% confluence; IP with anti-TRIP-Br3 or anti-XIAP antibody, protein A/G agarose, 4°C; lysis 150 mM NaCl, 25 mM Tris-HCl pH 8.0, 1 mM EDTA, 10% glycerol, NP-40; wash 900 mM NaCl, 0.5% NP-40; Western blot
T1 sequence: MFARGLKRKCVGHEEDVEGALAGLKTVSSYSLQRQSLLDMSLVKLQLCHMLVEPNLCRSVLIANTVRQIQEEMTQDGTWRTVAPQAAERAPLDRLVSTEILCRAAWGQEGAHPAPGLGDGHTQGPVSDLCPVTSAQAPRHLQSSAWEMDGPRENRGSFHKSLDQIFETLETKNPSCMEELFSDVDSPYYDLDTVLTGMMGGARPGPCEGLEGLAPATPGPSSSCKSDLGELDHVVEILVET

[2] = target: T2, Flag-tagged TRIP-Br3 expressed from pEF/TRIP-Br3 (UniProt Q9BXL8); assay: co-IP; HEK293T cells co-transfected with pEF/TRIP-Br3 and flag-tagged XIAP, XIAP-ΔBIR2 or XIAP-ΔRING (control vector pCMV); IP with anti-TRIP-Br3 antibody; Western blot
T2 sequence: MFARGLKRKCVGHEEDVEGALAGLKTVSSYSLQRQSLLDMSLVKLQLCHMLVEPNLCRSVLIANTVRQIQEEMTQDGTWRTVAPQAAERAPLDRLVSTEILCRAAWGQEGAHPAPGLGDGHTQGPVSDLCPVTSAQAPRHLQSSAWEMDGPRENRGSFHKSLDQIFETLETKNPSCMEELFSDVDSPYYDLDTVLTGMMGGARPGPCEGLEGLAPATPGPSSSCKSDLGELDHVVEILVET

[3] = target: T2, Flag-tagged TRIP-Br3 expressed from pEF/TRIP-Br3; assay: co-IP; HEK293T cells transfected with pEF/TRIP-Br3; lysate immunoprecipitated, protein A/G agarose, 4°C; wash 900 mM NaCl, 0.5% NP-40; Western blot
[4] = target: T2, Flag-tagged TRIP-Br3 expressed from pEF/TRIP-Br3; assay: co-IP; competition: HEK293T cells transfected with pEF/TRIP-Br3 (1 μg/ml) without or with pEF/TRIP-Br1 (1 or 2 μg/ml), complete medium 48 h; IP with anti-TRIP-Br3 or anti-XIAP antibody; Western blot
[5] = target: XIAP (X-linked inhibitor of apoptosis protein), endogenous in HEK293T cells (human (endogenous in HEK293T)) (UniProt P98170); assay: as above

binding [1]: binds
Molecule: XIAP (X-linked inhibitor of apoptosis protein), endogenous in MCF7 cells (from UniProt P98170 1-497)

binding [2]: binds
Molecule: flag-tagged full length XIAP (from UniProt P98170 1-497)

binding [3]: binds | binding [4]: binds
Molecule: XIAP (X-linked inhibitor of apoptosis protein), endogenous in HEK293T cells (from UniProt P98170 1-497)

binding [5]: binds
B1: Flag-tagged TRIP-Br1 expressed from pEF/TRIP-Br1 (protein, UniProt Q9UHV2 1-236)
chain: MLSKGLKRKREEEEEKEPLAVDSWWLDPGHTAVAQAPPAVASSSLFDLSVLKLHHSLQQSEPDLRHLVLVVNTLRRIQASMAPAAALPPVPSPPAAPSVADNLLASSDAALSASMASLLEDLSHIEGLSQAPQPLADEGPPGRSIGGAAPSLGALDLLGPATGCLLDDGLEGLFEDIDTSMYDNELWAPASEGLKPGPEDGPGKEEAPELDEAELDYLMDVLVGTQALERPPGPGR
